Measurements published in PMC7476715.
No constants are given. Whether binding was seen depends on the method and setting. In cells and extracts the contact can be indirect. These calls come from enrichment with a bait or labelling near it, and not all partners need be listed.

By UniProt entry, the sequences of proteins in these tests, tags left out.
UniProt P11881: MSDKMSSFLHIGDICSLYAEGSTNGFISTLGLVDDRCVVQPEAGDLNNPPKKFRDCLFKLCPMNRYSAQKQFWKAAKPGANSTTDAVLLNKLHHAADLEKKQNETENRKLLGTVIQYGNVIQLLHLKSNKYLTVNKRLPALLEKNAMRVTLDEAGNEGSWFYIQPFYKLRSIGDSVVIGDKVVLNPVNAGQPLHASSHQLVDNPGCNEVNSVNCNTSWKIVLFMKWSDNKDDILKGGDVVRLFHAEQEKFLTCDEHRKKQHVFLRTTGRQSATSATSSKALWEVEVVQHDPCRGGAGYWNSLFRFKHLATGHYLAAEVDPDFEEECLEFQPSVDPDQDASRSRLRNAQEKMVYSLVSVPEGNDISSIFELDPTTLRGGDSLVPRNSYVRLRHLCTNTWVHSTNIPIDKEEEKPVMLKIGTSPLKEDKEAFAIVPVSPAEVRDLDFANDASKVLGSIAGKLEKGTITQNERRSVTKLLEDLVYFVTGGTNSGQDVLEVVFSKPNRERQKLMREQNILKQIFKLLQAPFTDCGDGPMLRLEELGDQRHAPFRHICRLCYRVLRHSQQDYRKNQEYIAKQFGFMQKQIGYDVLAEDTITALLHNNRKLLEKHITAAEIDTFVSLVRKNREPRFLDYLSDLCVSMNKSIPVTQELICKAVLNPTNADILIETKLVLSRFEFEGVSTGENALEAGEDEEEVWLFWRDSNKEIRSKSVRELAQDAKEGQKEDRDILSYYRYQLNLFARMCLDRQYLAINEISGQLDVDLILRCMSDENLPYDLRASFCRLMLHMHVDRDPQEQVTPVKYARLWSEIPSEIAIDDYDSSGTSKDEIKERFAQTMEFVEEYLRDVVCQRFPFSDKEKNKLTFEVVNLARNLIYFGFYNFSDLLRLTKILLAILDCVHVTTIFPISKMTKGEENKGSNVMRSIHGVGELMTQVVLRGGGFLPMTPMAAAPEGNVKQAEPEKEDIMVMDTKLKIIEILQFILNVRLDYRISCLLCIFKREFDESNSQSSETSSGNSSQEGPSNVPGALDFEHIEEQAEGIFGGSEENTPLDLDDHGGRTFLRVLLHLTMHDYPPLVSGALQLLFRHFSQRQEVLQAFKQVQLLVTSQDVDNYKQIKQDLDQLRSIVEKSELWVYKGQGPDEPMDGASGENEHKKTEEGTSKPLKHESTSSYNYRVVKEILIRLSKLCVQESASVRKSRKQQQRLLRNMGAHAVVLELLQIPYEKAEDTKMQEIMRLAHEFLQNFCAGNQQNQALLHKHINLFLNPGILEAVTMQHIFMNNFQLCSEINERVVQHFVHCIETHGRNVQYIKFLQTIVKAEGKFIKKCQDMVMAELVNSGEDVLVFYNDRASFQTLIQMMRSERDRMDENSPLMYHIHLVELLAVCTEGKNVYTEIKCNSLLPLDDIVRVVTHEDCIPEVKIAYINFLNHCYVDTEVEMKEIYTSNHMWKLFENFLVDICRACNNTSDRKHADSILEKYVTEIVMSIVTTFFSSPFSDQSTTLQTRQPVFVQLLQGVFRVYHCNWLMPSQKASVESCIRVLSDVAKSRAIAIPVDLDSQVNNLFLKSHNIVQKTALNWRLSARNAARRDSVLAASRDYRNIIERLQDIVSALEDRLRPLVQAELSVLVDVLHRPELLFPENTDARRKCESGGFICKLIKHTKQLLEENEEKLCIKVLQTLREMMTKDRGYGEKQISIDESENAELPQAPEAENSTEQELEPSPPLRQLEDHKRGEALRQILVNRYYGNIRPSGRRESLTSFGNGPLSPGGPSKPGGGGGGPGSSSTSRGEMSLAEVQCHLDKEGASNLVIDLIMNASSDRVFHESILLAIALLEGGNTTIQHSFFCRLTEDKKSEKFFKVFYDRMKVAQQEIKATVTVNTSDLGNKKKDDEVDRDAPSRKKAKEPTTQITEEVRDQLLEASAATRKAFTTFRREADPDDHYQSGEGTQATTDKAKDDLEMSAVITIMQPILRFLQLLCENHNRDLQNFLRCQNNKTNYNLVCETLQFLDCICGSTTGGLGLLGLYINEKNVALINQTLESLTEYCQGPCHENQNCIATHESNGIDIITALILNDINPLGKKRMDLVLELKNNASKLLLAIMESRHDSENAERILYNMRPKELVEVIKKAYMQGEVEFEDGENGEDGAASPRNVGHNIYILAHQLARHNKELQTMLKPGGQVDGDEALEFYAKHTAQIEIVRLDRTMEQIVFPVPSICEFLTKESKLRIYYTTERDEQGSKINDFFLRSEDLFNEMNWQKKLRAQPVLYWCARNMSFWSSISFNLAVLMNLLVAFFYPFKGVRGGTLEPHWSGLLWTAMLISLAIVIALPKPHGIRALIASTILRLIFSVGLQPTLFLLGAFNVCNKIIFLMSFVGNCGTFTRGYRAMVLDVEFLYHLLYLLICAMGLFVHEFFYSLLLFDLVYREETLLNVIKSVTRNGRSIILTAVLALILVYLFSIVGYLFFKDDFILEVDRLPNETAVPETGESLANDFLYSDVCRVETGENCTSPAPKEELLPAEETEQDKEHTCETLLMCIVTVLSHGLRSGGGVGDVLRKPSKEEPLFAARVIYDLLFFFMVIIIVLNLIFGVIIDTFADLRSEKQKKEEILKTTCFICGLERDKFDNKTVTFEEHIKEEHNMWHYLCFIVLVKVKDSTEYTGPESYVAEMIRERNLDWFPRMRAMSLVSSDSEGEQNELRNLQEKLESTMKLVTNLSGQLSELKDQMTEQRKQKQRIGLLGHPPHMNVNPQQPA

Target: T1, Recombinant, biotinylated Caspr2 extracellular domain (mouse) (UniProt E9QNF7)
T1 sequence (chain, biotin (biotinylated in vivo)): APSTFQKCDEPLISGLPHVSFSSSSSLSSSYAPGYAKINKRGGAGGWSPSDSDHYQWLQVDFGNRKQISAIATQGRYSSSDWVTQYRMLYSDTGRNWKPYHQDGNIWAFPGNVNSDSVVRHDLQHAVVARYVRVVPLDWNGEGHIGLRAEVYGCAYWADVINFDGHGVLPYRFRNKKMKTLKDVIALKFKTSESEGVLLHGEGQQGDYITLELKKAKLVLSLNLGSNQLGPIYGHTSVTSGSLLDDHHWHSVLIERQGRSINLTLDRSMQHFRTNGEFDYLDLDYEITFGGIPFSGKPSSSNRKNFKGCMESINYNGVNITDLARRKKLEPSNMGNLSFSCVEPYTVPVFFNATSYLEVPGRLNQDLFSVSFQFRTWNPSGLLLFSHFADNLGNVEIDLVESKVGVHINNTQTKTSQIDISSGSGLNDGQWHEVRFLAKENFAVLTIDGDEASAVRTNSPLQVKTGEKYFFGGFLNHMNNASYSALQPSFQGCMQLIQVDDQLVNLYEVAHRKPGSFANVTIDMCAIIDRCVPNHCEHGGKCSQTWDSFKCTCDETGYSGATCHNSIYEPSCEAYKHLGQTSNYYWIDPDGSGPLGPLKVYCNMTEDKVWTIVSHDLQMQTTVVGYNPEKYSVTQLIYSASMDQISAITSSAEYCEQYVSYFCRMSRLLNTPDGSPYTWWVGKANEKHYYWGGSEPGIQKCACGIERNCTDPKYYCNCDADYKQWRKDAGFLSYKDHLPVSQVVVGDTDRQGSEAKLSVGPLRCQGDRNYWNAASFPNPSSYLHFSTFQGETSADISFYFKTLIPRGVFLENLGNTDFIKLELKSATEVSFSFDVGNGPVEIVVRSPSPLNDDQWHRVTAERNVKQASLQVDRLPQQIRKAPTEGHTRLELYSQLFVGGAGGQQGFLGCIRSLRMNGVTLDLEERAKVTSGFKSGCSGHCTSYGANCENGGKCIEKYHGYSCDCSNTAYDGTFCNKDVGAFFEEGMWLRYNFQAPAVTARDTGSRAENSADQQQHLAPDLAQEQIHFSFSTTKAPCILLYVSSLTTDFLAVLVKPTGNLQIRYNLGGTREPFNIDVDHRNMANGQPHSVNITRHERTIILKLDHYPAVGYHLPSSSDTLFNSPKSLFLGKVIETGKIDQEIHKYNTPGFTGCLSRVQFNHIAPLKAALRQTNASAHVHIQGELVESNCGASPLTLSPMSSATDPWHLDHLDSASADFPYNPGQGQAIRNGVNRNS
Assay: affinity purification with mass spectrometry; biotinylated Caspr2 ECD on streptavidin-coated magnetic beads, incubated with lysate of P14 WT mouse cerebellar synaptosomes in hypo-osmotic shock buffer (150 mM NaCl, 10 mM Tris, pH 8); four washes; LC-MS/MS; control beads coated with contaminant proteins of the ECD purification; only the target purified

binding: binds
Substance: type 1 inositol 1,4,5-trisphosphate receptor (IP3R1), endogenous in mouse cerebellar synaptosomes (from UniProt P11881 1-2749)
